Results deposited as PubChem BioAssay AID1224830 (NIAID, 2016).
The deposit covers about 18,000 reagents; this is an unselected part. About 2,900 of all reagents (16%) count as active. 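Calls are made per well; low scores hint the gene aids the LPS response, high scores that it dampens it.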 Unmarked entries are inactive. Repeated entries: four replicate wells of each siRNA pool.

Aim: 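Host factors that control LPS-induced TNF expression in human macrophages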 (primary screen)
Cells: human THP-1 monocytic leukaemia cells, TNF dual-luciferase reporter clone, PMA-differentiated to macrophage-like cells
Reagent: siRNA pool against human genes, 50 nM
Timing: LPS for 4 h, given about 3 days after siRNA transfection
Conditions: bacterial LPS (TLR4 ligand), 10 ng/ml
Detection: 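TNF firefly reporter luminescence divided by renilla, normalised to the plate median, then turned into a robust z-score for each replicate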
Reading the numbers: TNF reporter robust z-score: higher = stronger TNF reporter response to LPS
Hit rule: 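Each well counts as active if its z-score is over 2.8 or under -1.5; controls are left without a call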

After knock-down of HRCT1 (histidine rich carboxyl terminus 1), the screen gave TNF reporter robust z-score -0.97.
Depletion of HRCT1 (histidine rich carboxyl terminus 1) resulted in: TNF reporter robust z-score -1.27.
HRCT1 (histidine rich carboxyl terminus 1) gave TNF reporter robust z-score -0.76.
After knock-down of HRCT1 (histidine rich carboxyl terminus 1), the screen gave TNF reporter robust z-score -0.49.
Against ABI3BP (ABI family member 3 binding protein), the entry reads TNF reporter robust z-score -0.31.
Knock-down of ABI3BP (ABI family member 3 binding protein) came out at: TNF reporter robust z-score 0.52.
Knock-down of ABI3BP (ABI family member 3 binding protein) came out at: TNF reporter robust z-score 0.04.
After knock-down of ABI3BP (ABI family member 3 binding protein) the results were TNF reporter robust z-score 0.28.
With knock-down of GATA2 (GATA binding protein 2), the screen gave TNF reporter robust z-score -0.5.
Knock-down of GATA2 (GATA binding protein 2) gave: TNF reporter robust z-score 0.06.
Depletion of GATA2 (GATA binding protein 2) gave: TNF reporter robust z-score -0.19.
After knock-down of GATA2 (GATA binding protein 2), the record shows TNF reporter robust z-score 0.84.
Knock-down of REPS1 (RALBP1 associated Eps domain containing 1) resulted in: TNF reporter robust z-score -0.52.
REPS1 (RALBP1 associated Eps domain containing 1) scored TNF reporter robust z-score 1.02.
For REPS1 (RALBP1 associated Eps domain containing 1), the entry reads TNF reporter robust z-score 0.61.
With knock-down of REPS1 (RALBP1 associated Eps domain containing 1), the record shows TNF reporter robust z-score -0.09.
Silencing of MAGI3 gave: TNF reporter robust z-score 1.08.
MAGI3 scored TNF reporter robust z-score 0.57.
For MAGI3 the deposit lists TNF reporter robust z-score 1.41.
